{"source": "patent US12485147B2", "about": "“Method for producing cell mass including pituitary tissue, and cell mass thereof” (SUMITOMO CHEMICAL COMPANY, LIMITED, priority 2017, dated 2025)", "key": {"[1]": {"system": "Human ES cells (KhES-1 strain)", "assay": "Maturation by long-term culturing of cell mass containing pituitary tissue; fluorescence immunostaining of hormone producing cell markers", "assay_type": "cell-based", "settings": "day 84 from start of suspension culturing, cultured for 14 days with 10 μM Dexamethasone"}, "[2]": {"system": "Human ES cells (KhES-1 strain)", "assay": "Addition conditions of Sonic hedgehog signal transduction pathway activating substance (SAG) in production of cell mass containing pituitary tissue; bright field observation", "assay_type": "cell-based", "settings": "day 28", "experimental": "Human ES cells (KhES-1 strain, obtained from Kyoto University) were cultured under feeder-free conditions according to the method described in Scientific Reports, 4, 3594 (2014). As the feeder-free medium, StemFit medium was used and, as the feeder-free scaffold, Laminin 511-E8 was used.\nSpecific maintenance culturing operation was performed in the same manner as in Example 1.\nThereafter, suspension culturing in a 96 well plate was started under conditions similar to those in Example 1.\nA serum-free medium not containing Y27632 and containing IWP-2, SB-431542, BMP4, and SAG was added at 100 μl per well on day 2 from the start of suspension culturing. BMP4 was added at 3 nM to the medium so that the final concentration in the well would be 1.5 nM. SAG was added at a final concentration of 100, 300, 500, 700 nM, 1, 2, 5 μM as a Sonic hedgehog signal transduction pathway activating substance. The condition without addition of a Sonic hedgehog signal transduction pathway activating substance during the suspension culturing period was taken as the control (-SAG condition, FIG. 5A).\nA half amount of the medium was changed with a serum-free medium not containing Y27632 or BMP4, and containing IWP-2, SB-431542, each concentration of SAG on days 6, 10, 13, 17, 21, 24 from the start of suspension culturing. […]"}}, "note": "At least one structure is not confirmed: it was looked up by name or label, or the drawing left a doubt.", "data": [{"smiles": "C[C@@H]1C[C@H]2[C@@H]3CCC4=CC(=O)C=C[C@]4(C)[C@@]3(F)[C@@H](O)C[C@]2(C)[C@@]1(O)C(=O)CO", "note": "[Dexamethasone]", "values": [{"measurement": "hormone producing cell markers of pituitary gland in cell mass (immunostaining)", "setting": "[1]", "value": "contained PRL positive cells and GH positive cells"}]}, {"smiles": "CNC1CCC(N(Cc2cccc(-c3ccncc3)c2)C(=O)c2sc3ccccc3c2Cl)CC1", "note": "(centres unmarked) [SAG]", "values": [{"measurement": "appropriate concentration of SAG during suspension culturing for production of cell mass having pituitary tissue", "setting": "[2]", "value": "100 to 5000", "unit": "nM"}]}]}
